Article doi:10.64898/2025.12.15.694443
Results are given in words; binding and its absence hold for the method and conditions named. Tags and fused reporters may be left off the sequences shown.

Target: ARAF kinase domain (his6-ARAF^282-579) (UniProt P10398)
Assay: SEC

binding: no binding
B1: ARAF kinase domain (his6-ARAF^282-579) (domain or fragment, UniProt P10398 282-579)
chain: KSLADDKKKVKNLGYRDSGYYWEVPPSEVQLLKRIGTGSFGTVFRGRWHGDVAVKVLKVSQPTAEQAQAFKNEMQVLRKTRHVNILLFMGFMTRPGFAIITQWCEGSSLYHHLHVADTRFDMVQLIDVARQTAQGMDYLHAKNIIHRDLKSNNIFLHEGLTVKIGDFGLATVKTRWSGAQPLEQPSGSVLWMAAEVIRMQDPNPYSFQSDVYAYGVVLYELMTGSLPYSHIGCRDQIIFMVGRGYLSPDLSKISSNCPKAMRRLLSDCLKFQREERPLFPQILATIELLQRSLPKIER
